From US20190309093A1
These are yes or no findings as the source states them, for the method shown. Some entries that bind do so weakly or less than the wild type.

The chains behind the UniProt entries cited, without tags or fusion partners.
UniProt Q9NZQ7: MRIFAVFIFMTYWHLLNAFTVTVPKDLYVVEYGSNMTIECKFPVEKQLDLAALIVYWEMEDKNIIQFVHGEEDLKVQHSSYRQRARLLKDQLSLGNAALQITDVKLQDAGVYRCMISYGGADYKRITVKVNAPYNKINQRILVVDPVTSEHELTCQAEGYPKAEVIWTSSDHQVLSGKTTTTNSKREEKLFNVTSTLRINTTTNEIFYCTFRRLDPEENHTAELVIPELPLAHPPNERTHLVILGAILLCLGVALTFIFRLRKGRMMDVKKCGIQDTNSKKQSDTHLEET

Biological target: human PD-L1 (human) (UniProt Q9NZQ7)
Experiment: label-free kinetics on OCTET QKe, PD-L1 on AHC biosensor

B1: YBL-007 (antibody, V domains shown)
VH: QMQLVQSGAEVKKPGSSVKVSCKASGGTFSSYAISWVRQAPGQGLEWMGRIIPILGIANYAQKFQGRVTITADKSTSTAYMELSSLRSEDTAVYYCAKPRDGYNLVAFDIWGQGTMVTVSS
VL: QLVLTQPPSVSGAPGQRVTISCTGSSSNIGAGYDVHWYQQLPGAAPKLLIYGDINRPSGVPDRFSGSKSGISASLAITGLQAEDEADYYCQSYDSSLSGGVFGGGTKLTVLR
binding: binds
